In this assay the target is T1, Twist1 protein (TW1), endogenous in mouse colon neutrophils (mouse (endogenous in colon neutrophils of BALB/c mice)) (UniProt P26687).
T1 sequence: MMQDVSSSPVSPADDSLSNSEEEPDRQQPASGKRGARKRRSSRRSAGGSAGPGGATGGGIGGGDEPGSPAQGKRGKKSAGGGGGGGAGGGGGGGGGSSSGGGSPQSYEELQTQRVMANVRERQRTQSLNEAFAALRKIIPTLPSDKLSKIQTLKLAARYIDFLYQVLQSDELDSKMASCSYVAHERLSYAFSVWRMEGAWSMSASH
As to the kind of experiment: co-IP; protein extracts of colon neutrophils of mice treated with hypoxia for one week; Western blot. For orientation: Immunoblotting shows a protein as a band on a membrane.

No constants are given. Whether binding was seen depends on the method and setting. Binding seen in cells or lysates may run through a third protein.

“glucocorticoid receptor β (GRβ), endogenous in mouse colon neutrophils”: the binding entry is on record as “no binding”.

The values above are taken from PMC8315068.
